Reference: paper PMC6202051, “The DWORF micropeptide enhances contractility and prevents heart failure in a mouse model of dilated cardiomyopathy” (eLife, 2018)
No constants are given. Whether binding was seen depends on the method and setting. In cells and extracts the contact can be indirect. Some results given as binding are weak or reduced against the parent protein; the word gives no strength. Tags and fused reporters may be left off the sequences shown.

Amino acid sequences for entries named in this document (tags omitted). A change or cut given only in a name is not applied to a line headed by its entry. Chains listed by the source or under a name are the forms on record and can include a tag or linker.
Myc-tagged SERCA2a (O55143, form named): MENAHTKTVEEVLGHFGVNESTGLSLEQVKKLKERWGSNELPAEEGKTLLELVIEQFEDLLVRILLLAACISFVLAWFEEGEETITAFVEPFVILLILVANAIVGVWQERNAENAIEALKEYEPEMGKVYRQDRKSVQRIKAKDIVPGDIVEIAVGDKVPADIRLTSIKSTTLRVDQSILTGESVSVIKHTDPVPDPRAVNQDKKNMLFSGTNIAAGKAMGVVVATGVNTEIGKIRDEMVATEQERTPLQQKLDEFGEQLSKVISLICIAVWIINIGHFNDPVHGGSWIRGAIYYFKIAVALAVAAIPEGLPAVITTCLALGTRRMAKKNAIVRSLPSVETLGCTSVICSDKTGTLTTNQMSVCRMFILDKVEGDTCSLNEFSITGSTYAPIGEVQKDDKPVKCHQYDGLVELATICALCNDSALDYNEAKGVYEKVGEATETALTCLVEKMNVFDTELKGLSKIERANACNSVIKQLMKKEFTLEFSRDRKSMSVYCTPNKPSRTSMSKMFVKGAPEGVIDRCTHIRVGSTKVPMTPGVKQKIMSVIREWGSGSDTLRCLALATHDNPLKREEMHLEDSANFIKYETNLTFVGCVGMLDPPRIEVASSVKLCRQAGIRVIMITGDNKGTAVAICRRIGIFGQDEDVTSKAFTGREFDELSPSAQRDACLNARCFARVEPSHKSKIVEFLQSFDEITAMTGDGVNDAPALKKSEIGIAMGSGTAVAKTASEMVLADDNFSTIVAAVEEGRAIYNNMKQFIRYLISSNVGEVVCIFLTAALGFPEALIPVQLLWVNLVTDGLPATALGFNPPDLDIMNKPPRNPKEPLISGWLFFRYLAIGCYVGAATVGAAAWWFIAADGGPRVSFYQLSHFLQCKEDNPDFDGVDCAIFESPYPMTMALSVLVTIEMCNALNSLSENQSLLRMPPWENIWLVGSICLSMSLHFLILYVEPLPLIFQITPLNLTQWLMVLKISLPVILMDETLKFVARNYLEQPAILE

Tests used:
mCerulean (Cer)-SERCA2a = mCerulean (Cer)-SERCA2a (UniProt O55143); assay: FRET or BRET; acceptor sensitization FRET microscopy in live transfected AAV-293 cells (Cer excitation, YFP emission); FRET efficiency against YFP intensity of ~1000 cells per experiment, hyperbolic fit; apparent Kd in arbitrary units
[1] = biological target: T1, yellow fluorescent protein (YFP)-PLN, P61014; assay: FRET or BRET; progressive acceptor photobleaching of YFP in live transfected AAV-293 cells; donor against acceptor fluorescence, a linear relationship taken as a 1:1 complex; conditions: remark: other sources report otherwise
T1 chain: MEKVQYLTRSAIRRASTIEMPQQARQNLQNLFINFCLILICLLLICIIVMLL

Myc-tagged SERCA2a = Myc-tagged SERCA2a (UniProt O55143); assay: co-IP; HEK293 cells co-transfected with equal amounts of Myc-SERCA2a and HA-PLN (1 ug) and increasing amounts of HA-DWORF or control plasmid; whole cell lysates in CoIP buffer (0.1% NP-40, 150 mM NaCl); anti-Myc immunoprecipitation on Dynabeads, HA western blot

B1: yellow fluorescent protein (YFP)-PLN (protein, UniProt P61014 1-52)
chain: T1 chain
- binding (mCerulean (Cer)-SERCA2a): binds

B2: yellow fluorescent protein (YFP)-PLN, P61014 1-52 (protein)
chain: T1 chain
- binding [1]: binds

B3: HA-tagged PLN (protein, UniProt P61014 1-52)
chain: T1 chain
- binding (Myc-tagged SERCA2a): binds
